Results deposited as PubChem BioAssay AID1259425 (University of Nebraska Medical Center, 2018).

Purpose: 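Compare each knockdown with KSR1 silencing using changes in marker transcripts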 (primary screen)
Cell system: HCT116 human colon cancer cells
Reagent: siRNA pool against human genes, 50 nM siRNA
Measurement: 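mRNA of six signature genes measured together by branched-DNA assay after 50 nM siRNA pool, blank removed, divided by geometric mean of two housekeeping genes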
Direction: BNIP3L mRNA: higher = more BNIP3L transcript after knockdown; NDRG1 mRNA: higher = more NDRG1 transcript after knockdown; BNIP3 mRNA: higher = more BNIP3 transcript after knockdown; ALDOC mRNA: higher = more ALDOC transcript after knockdown; ACSL5 mRNA: higher = more ACSL5 transcript after knockdown
The deposit covers about 14,000 reagents; shown is an unselected part. No sequences are given here. Not given: the time to read-out.

gene symbol | BNIP3L mRNA, set 1 | NDRG1 mRNA, set 1 | BNIP3 mRNA, set 1 | ALDOC mRNA, set 1 | ACSL5 mRNA, set 1
MDH1 | 0.101 | 0.0819 | 0.211 | 0.0319 | 0.133
NSD1 | 0.0879 | 0.239 | 0.232 | 0.0208 | 0.152
COL16A1 | 0.073 | 0.0584 | 0.322 | 0.0352 | 0.0967
GTF2A2 | 0.0553 | 0.027 | 0.293 | 0.0146 | 0.131
PRELID3B | 0.142 | 0.17 | 0.299 | 0.0111 | 0.217
TRIM26 | 0.0727 | 0.14 | 0.22 | 0.0153 | 0.172
ACSL1 | 0.0654 | 0.157 | 0.246 | 0.0805 | 0.106
PSAP | 0.0544 | 0.193 | 0.207 | 0.0093 | 0.146
CANT1 | 0.146 | 0.467 | 0.287 | 0.0304 | 0.196
TSPAN8 | 0.14 | 0.483 | 0.306 | 0.0433 | 0.255
IER3 | 0.191 | 0.169 | 0.412 | 0.0503 | 0.221
TNFSF10 | 0.092 | 0.0732 | 0.266 | 0.0253 | 0.123
WDR26 | 0.133 | 0.253 | 0.28 | 0.0371 | 0.107
ZYG11B | 0.156 | 0.423 | 0.345 | 0.0434 | 0.148
ISLR | 0.0748 | 0.146 | 0.453 | 0.0198 | 0.266
APCS | 0.0913 | 0.097 | 0.353 | 0.0141 | 0.266
TRIM23 | 0.0632 | 0.125 | 0.213 | 0.0152 | 0.102
PLEC | 0.119 | 0.109 | 0.314 | 0.0263 | 0.0593
BCAR1 | 0.146 | 0.287 | 0.263 | 0.0206 | 0.266
GRAMD1C | 0.1 | 0.215 | 0.288 | 0.029 | 0.354
PKIA | 0.184 | 0.181 | 0.267 | 0.00274 | 0.171
IWS1 | 0.0435 | 0.21 | 0.344 | 0.0339 | 0.151
LMF1 | 0.0453 | 0.0706 | 0.406 | 0.00953 | 0.148
FRMD4B | 0.113 | 0.467 | 0.46 | 0.0554 | 0.408
LRRC8C | 0.125 | 0.514 | 0.289 | 0.0246 | 0.285
SS18L2 | 0.0866 | 0.123 | 0.332 | 0.0215 | 0.314
GAGE1 | 0.123 | 0.314 | 0.327 | 0.0163 | 0.172
ESD | 0.0321 | 0.129 | 0.294 | 0.00159 | 0.121
KIR2DS3 | 0.0731 | 0.342 | 0.287 | 0.00987 | 0.0671
CCDC88C | 0.112 | 0.162 | 0.334 | 0.016 | 0.14
S100A4 | 0.0851 | 0.158 | 0.308 | 0.00818 | 0.192
DPP7 | 0.109 | 0.128 | 0.175 | 0.00278 | 0.0551
CCDC87 | 0.0791 | 0.279 | 0.38 | 0.0641 | 0.178
SEC22B | 0.193 | 0.954 | 0.292 | 0.023 | 0.344
